Assay results reported in article PMC4268694.
Results are given in words; binding and its absence hold for the method and conditions named. Binding seen in cells or lysates may run through a third protein. Some results given as binding are weak or reduced against the parent protein; the word gives no strength. For part of these data: Tags and fused reporters may be left off the sequences shown.

Chains of the proteins cited; added tags and fusions are not shown.
UniProt Q13535: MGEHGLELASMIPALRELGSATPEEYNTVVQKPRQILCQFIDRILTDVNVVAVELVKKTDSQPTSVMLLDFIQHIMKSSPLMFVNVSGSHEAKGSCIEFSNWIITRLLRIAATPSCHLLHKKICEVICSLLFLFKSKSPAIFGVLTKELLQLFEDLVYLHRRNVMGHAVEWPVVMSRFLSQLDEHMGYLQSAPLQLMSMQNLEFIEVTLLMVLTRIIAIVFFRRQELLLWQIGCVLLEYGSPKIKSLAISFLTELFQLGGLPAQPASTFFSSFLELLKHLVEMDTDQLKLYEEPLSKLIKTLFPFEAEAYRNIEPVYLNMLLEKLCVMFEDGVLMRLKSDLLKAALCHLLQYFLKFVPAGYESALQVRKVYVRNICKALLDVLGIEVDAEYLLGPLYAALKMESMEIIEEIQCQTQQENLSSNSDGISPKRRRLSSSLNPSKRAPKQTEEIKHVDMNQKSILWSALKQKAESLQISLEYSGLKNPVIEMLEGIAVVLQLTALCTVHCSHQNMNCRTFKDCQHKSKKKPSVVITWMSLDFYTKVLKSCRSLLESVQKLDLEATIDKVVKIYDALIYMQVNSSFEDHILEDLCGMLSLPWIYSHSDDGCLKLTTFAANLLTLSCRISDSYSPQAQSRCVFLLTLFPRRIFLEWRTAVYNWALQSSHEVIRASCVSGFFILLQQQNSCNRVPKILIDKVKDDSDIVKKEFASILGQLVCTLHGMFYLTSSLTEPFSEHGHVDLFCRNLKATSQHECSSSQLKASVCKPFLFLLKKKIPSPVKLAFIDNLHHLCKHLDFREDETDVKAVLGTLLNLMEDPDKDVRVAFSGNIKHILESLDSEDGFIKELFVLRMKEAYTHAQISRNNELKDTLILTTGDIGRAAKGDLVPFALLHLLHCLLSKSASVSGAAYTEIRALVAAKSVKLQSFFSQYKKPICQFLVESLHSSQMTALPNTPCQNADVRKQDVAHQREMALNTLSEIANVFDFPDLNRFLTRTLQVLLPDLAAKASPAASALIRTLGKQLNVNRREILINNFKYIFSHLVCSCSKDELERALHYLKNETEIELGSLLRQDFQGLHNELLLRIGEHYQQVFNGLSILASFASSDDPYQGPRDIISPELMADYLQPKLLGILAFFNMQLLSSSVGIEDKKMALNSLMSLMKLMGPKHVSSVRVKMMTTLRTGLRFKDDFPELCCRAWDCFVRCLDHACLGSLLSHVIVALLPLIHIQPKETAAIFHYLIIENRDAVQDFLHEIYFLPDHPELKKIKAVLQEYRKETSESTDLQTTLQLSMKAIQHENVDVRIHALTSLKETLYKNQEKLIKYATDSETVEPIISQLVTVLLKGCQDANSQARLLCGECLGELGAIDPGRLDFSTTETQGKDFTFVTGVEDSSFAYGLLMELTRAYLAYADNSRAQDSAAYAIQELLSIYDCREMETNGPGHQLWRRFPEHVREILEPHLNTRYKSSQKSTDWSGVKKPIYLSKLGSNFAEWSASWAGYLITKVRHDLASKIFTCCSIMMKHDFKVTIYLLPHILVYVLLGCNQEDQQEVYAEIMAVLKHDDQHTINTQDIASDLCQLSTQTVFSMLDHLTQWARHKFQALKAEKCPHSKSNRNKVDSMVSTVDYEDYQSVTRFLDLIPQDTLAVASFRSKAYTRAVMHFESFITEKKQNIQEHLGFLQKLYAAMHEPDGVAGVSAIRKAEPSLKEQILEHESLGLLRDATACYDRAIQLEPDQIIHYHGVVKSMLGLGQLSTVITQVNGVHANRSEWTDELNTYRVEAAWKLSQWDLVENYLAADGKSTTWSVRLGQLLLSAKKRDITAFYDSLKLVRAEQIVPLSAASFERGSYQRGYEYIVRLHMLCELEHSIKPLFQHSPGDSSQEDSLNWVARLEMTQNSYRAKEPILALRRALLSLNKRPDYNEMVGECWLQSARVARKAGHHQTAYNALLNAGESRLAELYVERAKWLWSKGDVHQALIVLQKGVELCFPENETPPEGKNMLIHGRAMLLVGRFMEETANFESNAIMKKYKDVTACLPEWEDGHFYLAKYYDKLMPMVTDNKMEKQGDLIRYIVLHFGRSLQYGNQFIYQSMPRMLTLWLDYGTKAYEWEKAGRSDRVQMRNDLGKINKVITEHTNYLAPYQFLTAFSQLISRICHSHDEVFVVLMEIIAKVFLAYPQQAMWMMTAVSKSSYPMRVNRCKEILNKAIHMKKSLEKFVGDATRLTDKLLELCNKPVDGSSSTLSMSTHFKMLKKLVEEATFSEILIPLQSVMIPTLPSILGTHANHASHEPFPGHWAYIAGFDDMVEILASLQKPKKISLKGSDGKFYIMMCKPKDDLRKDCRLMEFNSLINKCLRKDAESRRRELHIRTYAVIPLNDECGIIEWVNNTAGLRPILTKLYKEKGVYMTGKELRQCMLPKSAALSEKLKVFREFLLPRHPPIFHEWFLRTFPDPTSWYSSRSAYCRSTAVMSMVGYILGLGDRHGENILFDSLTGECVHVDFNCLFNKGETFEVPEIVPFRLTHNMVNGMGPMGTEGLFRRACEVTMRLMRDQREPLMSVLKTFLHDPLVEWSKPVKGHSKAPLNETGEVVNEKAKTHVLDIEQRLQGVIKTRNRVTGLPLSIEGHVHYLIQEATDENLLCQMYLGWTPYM

Legend:
[1] = target: FLAG-H2AX-WT (wild-type histone H2AX) (human) (UniProt P16104); test: co-IP; HeLa cells co-expressing FLAG-H2AX (WT or K134A) and HA-SUV39H2, treated with 1 uM doxorubicin 48 h post transfection; lysed in CelLytic M; IP with anti-FLAG M2 agarose, washed in TBS pH 7.6; blotted with anti-phospho-ATM and anti-ATR
[2] = target: T1, Biotin-tagged methylated H2AX peptide (K134 dimethylated, amino acids 121-142) (human); test: pull-down; biotin-tagged H2AX peptides mixed with whole-cell lysate of doxorubicin-treated HeLa cells in kinase buffer (50 mM HEPES pH 7.5, 50 mM KCl, 5 mM MgCl2, 10% glycerol, 1 mM ATP, 1 mM DTT), 90 min at 30 C; precipitated with Dynabeads M-280 streptavidin; blotted with anti-ATR and anti-phospho-ATM; only the target purified
T1 sequence (peptide, dimethyl-lysine at K134 ([me2K]); biotin on the N-terminus): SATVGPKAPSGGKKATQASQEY

[3] = target: T2, Biotin-tagged unmethylated H2AX peptide (amino acids 121-142) (human); test: as above
T2 sequence (peptide, biotin on the N-terminus): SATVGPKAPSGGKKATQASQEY

Measured: binding

ATR (ataxia telangiectasia and Rad3-related) (from UniProt Q13535 1-2644) (enzyme)
binds: all assays above
